# Several values for one entry are separate records, joined by “and”; a condition that tells them apart may be missing. Equal values may be shown once. Hit rate of the full screen: of about 580,000 compounds, about 6,100 (1.1%) were called active. The inconclusive results got no clear call from the source; some entries with a clear call stand among them for comparison. The call rests on the fitted dose curve; in most records, active means well fitted inhibition curve with a large enough effect; inconclusive means small, poorly fitted or top-dose-only effect, or another doubt; inactive means no such curve, though single readings can be large or run the other way. Where the call is inconclusive, the potency comes from a doubtful curve fit.
# Sequences of proteins named here, by UniProt entry; tags and fusion partners are left off. A change or cut given only in a name is not applied to a line headed by its entry.
# UniProt P18054: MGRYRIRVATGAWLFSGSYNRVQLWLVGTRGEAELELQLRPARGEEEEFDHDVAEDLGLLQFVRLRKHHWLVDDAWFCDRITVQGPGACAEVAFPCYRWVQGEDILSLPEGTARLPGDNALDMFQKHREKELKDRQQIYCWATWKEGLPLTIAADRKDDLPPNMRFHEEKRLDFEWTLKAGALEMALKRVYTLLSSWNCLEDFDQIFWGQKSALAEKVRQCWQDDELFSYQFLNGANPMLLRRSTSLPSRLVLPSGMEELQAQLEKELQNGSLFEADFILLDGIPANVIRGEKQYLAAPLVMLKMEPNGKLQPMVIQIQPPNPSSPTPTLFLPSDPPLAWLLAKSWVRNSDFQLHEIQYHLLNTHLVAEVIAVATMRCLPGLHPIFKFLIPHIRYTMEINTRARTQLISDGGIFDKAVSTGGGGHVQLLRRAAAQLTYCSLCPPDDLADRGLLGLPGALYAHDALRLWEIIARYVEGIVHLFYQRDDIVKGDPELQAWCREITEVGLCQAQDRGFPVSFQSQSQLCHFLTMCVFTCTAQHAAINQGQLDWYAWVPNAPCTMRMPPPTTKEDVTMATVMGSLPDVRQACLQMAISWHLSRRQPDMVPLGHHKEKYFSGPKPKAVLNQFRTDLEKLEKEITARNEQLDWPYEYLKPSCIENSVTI
# Molecular target: Polyunsaturated fatty acid lipoxygenase ALOX12 (Homo sapiens) (UniProt P18054)
# Assay: Primary qHTS assay for inhibitors of human arachidonate 12S-lipoxygenase (ALOX12): Round 2
# Settings: purified 12hLO, xylenol orange hydroperoxide absorbance; activity change, negative = inhibition: at 108 µM (top of the series) unless noted
# In short: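 Purified human 12hLO (150 nM final) in 25 mM Hepes, 0.01% Triton X-100, pH 7.0 was preincubated 15 min at room temperature with compound. Then 40 uM arachidonic acid was added, 30 min. Hydroperoxide was read by Fe-XO absorbance ratio 573/405 nm.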
# On the % scale 0 is the no-effect control and ±100 the full control effect; potency means the concentration at half of the fitted maximal effect.
Compound,Potency,"activity change, negative = inhibition"
Clc1ccc(-c2ncc3ccccn23)cc1,"inconclusive: 50.1 µM [inhibitor, partial curve, poor fit]",–
CCCCC(=O)Nc1cccc(NC(=O)CC)c1,inactive,–
CC(C)N1C(=O)C2(CCCCC2)C1C(=O)NCCCN1CCN(c2ccccc2)CC1 (configuration not stated),inactive,–
COc1cc(OC)c(NC(=O)Cn2nc(-c3cc(C)ccc3C)ccc2=O)cc1Cl,inactive,–
COc1ccc(Cl)cc1NC(=O)CSc1cn(CC(=O)N2CCCCCC2)c2ccccc12,inactive,–
O=C(COC(=O)C1CC2CCCC(C1)C2=O)Nc1ccc(F)c(Cl)c1 (configuration not stated),inactive,–
CCCNC(=O)N1CCCC(Cc2ncc(C)n2Cc2ccccc2)C1 (configuration not stated),inactive,–
Cc1cc2c(cc1C)C(=O)NC(C)(C)C2,inactive,–
CCn1c(SCC(=O)NC2CCCCC2)nc2c(c1=O)SCC2,"inconclusive: 6.31 µM [inhibitor, single point]",–
COCCNC(=O)c1cc(-c2ccccc2)sc1N,"inconclusive: 39.8 µM [inhibitor, partial curve]",–
COc1cc(/C=C(/C#N)C(=O)c2ccccc2)cc(Cl)c1O,"inconclusive: 20 µM [inhibitor, partial curve, poor fit]",–
Cc1cc(C)c2c(=O)[nH]c(SCC(=O)c3ccc(C)c(C)c3)nc2n1,"inconclusive: 56.2 µM [inhibitor, single point]",–
COc1ccc(C(C(=O)O)N2CCN(Cc3csc(C)n3)CC2)cc1C (configuration not stated),"inconclusive: 8.91 µM [inhibitor, full curve]",–
O=C(/C=C/c1ccc2c(c1)OCO2)c1ccco1,"inconclusive: 50.1 µM [inhibitor, partial curve, poor fit]",–
Cn1c(=O)c2c(ncn2CCC(=O)NCC2CCCCC2)n(C)c1=O,inactive,–
Cc1ccc(OCC(O)CN2CCN(Cc3ccc4c(c3)OCO4)CC2)c(C)c1 (configuration not stated),"inconclusive: 5.01 µM [inhibitor, full curve] and inconclusive: 79.4 µM [inhibitor, partial curve, poor fit]",–
CCOC(=O)c1sc2nc3c(cc2c1N)COC(C)(C)C3,inactive,–
Cn1cc(-c2ccno2)c(C(=O)O)n1,"inconclusive: 50.1 µM [inhibitor, partial curve, poor fit]",–
COCCCNC(=S)N/N=C/c1ccc2ccccc2c1,inactive,–
C=CCNc1oc(-c2cccc3ccccc23)nc1C#N,"inconclusive: 7.08 µM [inhibitor, full curve, poor fit]",–
CC(CN1CCOCC1)OC(=O)c1cccc(Cl)c1 (configuration not stated),"inconclusive: 39.8 µM [inhibitor, partial curve, poor fit]",–
CC1(C)CC(=O)C2=C(C1)Nc1cc3c(cc1C2c1ccc2c(c1)OCO2)OCO3 (configuration not stated),"inconclusive: 79.4 µM [inhibitor, single point]",–
COc1cc2c(c(O)c1OC)-c1c(cc(OC)c(OC)c1OC)C[C@@H](C)[C@@H](C)C2,inactive,–

Compound,Potency,"activity change, negative = inhibition"
CCCc1cc(=O)oc2cc(OCC(=O)Nc3ccc(S(N)(=O)=O)cc3)ccc12,"inconclusive: 100 µM [inhibitor, single point]",–
CCc1ccccc1NC(=O)N1CCN(C(=O)c2nsc3ccccc23)CC1,–,inconclusive: -30.4% [inhibitor]
Cc1cc(C(C)(C)C)ccc1OCCN1CCCC1,"inconclusive: 5.62 µM [inhibitor, partial curve, poor fit]",–
Cc1cnc(NC(=O)CCOc2cccc(Br)c2)s1,inactive,–
CCc1ccc(NC(=O)CC2C(=O)N(c3cccc(C)c3)C(=O)N2Cc2ccco2)cc1 (configuration not stated),–,inconclusive: -30.4% [inhibitor]
Cn1c(=O)c2ccccc2n(Cc2cccc(F)c2)c1=O,inactive,–
Cc1c(C)n(CCCN(C)C)c2ncn3nc(COc4ccc(C(C)(C)C)cc4)nc3c12,"inconclusive: 50.1 µM [inhibitor, partial curve, poor fit]",–
Cc1cccc2nc(C(=O)N3CCC(n4cc(C(C)(C)O)nn4)CC3)cn12,"inconclusive: 31.6 µM [inhibitor, partial curve, poor fit]",–
COc1cccc(CNc2ccc(Br)cn2)c1O,"inconclusive: 39.8 µM [inhibitor, single point]",–
COc1ccccc1S(=O)(=O)N(C)C[C@H]1Oc2cc(C#CCC3CCCC3)ccc2S(=O)(=O)N([C@H](C)CO)C[C@H]1C,active: 20 µM,–
Cc1ccc(-c2cc(C(=O)NN=C3CCCC3)c3ccccc3n2)cc1,inactive,–
CCNC(=S)NNC(=O)c1cc(-c2ccc(OCC)cc2)nc2ccccc12,"inconclusive: 44.7 µM [inhibitor, partial curve, poor fit]",–
Nc1[nH]c(C(=O)c2ccc(Br)cc2)c(-c2ccccn2)c1C(=O)NCCc1c[nH]c2ccccc12,"inconclusive: 70.8 µM [inhibitor, partial curve, poor fit]",–
CS(=O)(=O)c1ccc(Cl)c(NC(=O)CCCc2cccs2)c1,"inconclusive: 6.31 µM [inhibitor, single point]",–
COc1cc(CN(CCN(C)C)Cc2ccccc2)cc(OC)c1OC,"inconclusive: 1.58 µM [inhibitor, full curve, poor fit]",–
COc1ccc(C2NC(=S)NC3=C2CCc2cc(OC)ccc23)cc1 (configuration not stated),active: 25.1 µM and active: 28.2 µM,–
O=C(NCc1ccc2c(c1)OCO2)c1cccc(S(=O)(=O)N2CCc3ccccc3C2)c1,"inconclusive: 5.01 µM [inhibitor, full curve]",–
O=[N+]([O-])c1cc2c(ccc3occc32)o1,"inconclusive: 44.7 µM [inhibitor, partial curve, poor fit]",–
COc1c(F)c(F)c(C(=O)O)c(Nc2ccccc2C)c1F,"inconclusive: 35.5 µM [inhibitor, partial curve, poor fit]",–
CCOC(=O)c1c(-c2ccc(C)o2)csc1NC(=O)CN1CCOCC1,inactive,–
Cc1cccc(N2CCN(C(=O)Cn3nc(Cc4cccnc4)c4ccccc4c3=O)CC2)c1C,inactive,–
Cc1cccc(N(CC(=O)N[C@H]2CC[C@H]2NC2CCCC2)S(C)(=O)=O)c1,inactive,–
CC(C)(C)c1ccc(-c2nc(SCC(=O)Nc3ccccc3F)n3[nH]c(=O)cc3n2)cc1,–,inconclusive: -32.2% [inhibitor]

Compound,Potency,"activity change, negative = inhibition"
CC(CCc1ccc(O)cc1)NCCc1ccc(O)c(O)c1 (configuration not stated),"inconclusive: 112 µM [inhibitor, partial curve, poor fit] and inconclusive: 44.7 µM [inhibitor, partial curve, poor fit]",–
Cc1ccc(S(=O)(=O)NN2C(=O)/C(=C/c3cccnc3)SC2=S)cc1,"inconclusive: 39.8 µM [inhibitor, partial curve, poor fit]",–
CC(C)C1C(C#N)=C(N)Oc2n[nH]c(-c3ccc4ccccc4c3)c21 (configuration not stated),"inconclusive: 44.7 µM [inhibitor, partial curve, poor fit]",–
CCCCOC(=O)c1ccc(NC(=O)C(=O)NCCN(C)C)cc1,"inconclusive: 100 µM [inhibitor, partial curve, poor fit]",–
Cc1ccccc1NC(=O)c1c(C)oc2ccc(O)c(CN3CCN(C)CC3)c12,inactive,–
CCN1CCN(CC(=O)N2C[C@@H](C(=O)O)[C@H](c3ccccc3OC)C2)CC1,"inconclusive: 8.91 µM [inhibitor, full curve, poor fit]",–
CC(/C=C1\SC(=S)N(NS(=O)(=O)c2ccccc2)C1=O)=C\c1ccccc1,"inconclusive: 44.7 µM [inhibitor, partial curve, poor fit]",–
O=C(CN1CCN(S(=O)(=O)c2cc(Cl)ccc2Cl)CC1)c1ccc(O)c(O)c1,active: 1.41 µM,–
O=[N+]([O-])c1ccccc1/C=N/n1c(-c2ccccc2)n[nH]c1=S,inactive,–
Cc1ccc(S(=O)(=O)N2CCN(C(=O)CCN3C(=O)c4ccccc4C3=O)CC2)cc1C,"inconclusive: 126 µM [inhibitor, partial curve, poor fit]",–
CN1CCN(c2ccc(-c3cc(NC=O)c4ncc(-c5ccccc5)n4c3)cc2)CC1,"inconclusive: 70.8 µM [inhibitor, single point]",–
Cc1cccn2c(=O)c(C(=O)NCCc3ccc(S(N)(=O)=O)cc3)c(O)nc12,"inconclusive: 56.2 µM [inhibitor, partial curve, poor fit]",–
NCCC(=O)Nc1cccc2ccccc12,inactive,–
COC(=O)c1ccc2c(c1)C(C)(C)C(/C=C/c1ccccc1O)=[N+]2C,"inconclusive: 10 µM [inhibitor, full curve, poor fit]",–
Cc1ccccc1CSc1cn(CC(=O)N2CCCCCC2)c2ccccc12,"inconclusive: 63.1 µM [inhibitor, partial curve, poor fit]",–
Cc1cccc(Nc2nnc(SCC(=O)NC(=O)CN3CCCC3=O)s2)c1,"inconclusive: 35.5 µM [inhibitor, partial curve, poor fit]",–
CCOc1ccc(NC(=O)CN2CCN(CC(=O)Nc3ccc(C(=O)OC)cc3)CC2)cc1,inactive,–
CCCCn1c(Cn2ccnc2C)nc2cc(NC(=O)c3ccccc3C)ccc21,inactive,–
O=C(O)c1ccccc1NC(=S)NC(NC(=O)c1ccccc1[N+](=O)[O-])C(Cl)(Cl)Cl (configuration not stated),"inconclusive: 39.8 µM [inhibitor, partial curve, poor fit]",–
CN(c1ccccc1)S(=O)(=O)c1ccc(Cl)c(C(=O)Nc2nn[nH]n2)c1,"inconclusive: 50.1 µM [inhibitor, partial curve, poor fit]",–
Cc1ccc2nc(-c3ccc(SCC(=O)O)nc3)[nH]c2c1,"inconclusive: 50.1 µM [inhibitor, partial curve, poor fit]",–

# 4 neighbouring entries already listed, quoted:
Compound,Potency,"activity change, negative = inhibition"
Cc1ccccc1NC(=O)c1c(C)oc2ccc(O)c(CN3CCN(C)CC3)c12,inactive,–
CCN1CCN(CC(=O)N2C[C@@H](C(=O)O)[C@H](c3ccccc3OC)C2)CC1,"inconclusive: 8.91 µM [inhibitor, full curve, poor fit]",–
CC(/C=C1\SC(=S)N(NS(=O)(=O)c2ccccc2)C1=O)=C\c1ccccc1,"inconclusive: 44.7 µM [inhibitor, partial curve, poor fit]",–
O=C(CN1CCN(S(=O)(=O)c2cc(Cl)ccc2Cl)CC1)c1ccc(O)c(O)c1,active: 1.41 µM,–

# From PubChem BioAssay AID1671190 (National Center for Advancing Translational Sciences (NCATS), 2021)
